Measurements: US20240290976A1, “CYCLOTETRABENZIL COMPOUNDS FOR ELECTROCHEMICAL LITHIUM-ION STORAGE” (UNIVERSITY OF HOUSTON SYSTEM, priority 2023, published 2024)

Experiments:
[1] = Charge/discharge of organic cathodes in CR2032 lithium half-cells; conditions: for dQ/dV redox peak for lithiation: LiTFSI in DME/DOL electrolyte; for specific (discharging) capacity: LiTFSI in DOL/DME electrolyte; for electron transfer corresponding to specific capacity: 0.1 C
Excerpt: With compounds 1-4 in hand, we evaluated their electrochemical redox behavior as the active components within the organic electrodes. FIG. 2A-FIG. 2D show the charge/discharge profiles during typical cycling for compounds 1-4 under the current density of 100 mA g^−1, and using lithium bis-trifluoromethanesulfonimide (LiTFSI) in dioxolane/dimethoxyethane (DOL/DME) as the electrolyte. Assuming the transfer of eight electrons to their carbonyl groups, the theoretical specific capacities of compounds 1-3 are 406.02, 294.46, and 257.44 mAh g^−1, respectively.
All experiments were performed at room temperature, and all cells were assembled in an mBraun argon-filled glovebox (<0.5 ppm water and oxygen content). Electrochemical measurements were recorded on Bio-Logic VMP3 potentiostat and LAND CT-2001A battery tested. The following starting materials and solvents were purchased from commercial suppliers and used without further purification: lithium bis(trifluoromethanesulfonyl)imide (LiTFSI), dimethoxyethane (DME), and dioxolane (DOL) from MilliporeSigma. LiTFSI was allowed to dry in the glovebox for 24 prior to being used.
(§1) To fabricate free-standing electrodes, the active material (compounds 1-4), Katjenblack carbon (KB), and polytetrafluoroethylene (PTFE) binder were mixed in a 5:4:1 mass ratio and then pressed into pellets with the aid of EtOH (areal mass loading ˜1.5 mg cm^−2). The typical thickness of these free-standing cathodes was ˜150 μm from the SEM measurement (FIG. 9A). For Fourier transform infrared measurements, macrocycle compound 2, KB, and PTFE binder were mixed in a 6:3:1 mass ratio to give an active material areal mass loading of ˜2 mg cm^−2 For the long cycling and rate performance test, a mass ratio of 3:5:2 (30% of compound 2 and compound 4) was used, and the mixture was rolled onto a stainless-steel mesh disc with ⅜-inch diameter (areal mass loading ˜0.4 mg cm^−2). All electrodes were dried at 85° C. under vacuum for 24 hours before using.
(§2) The 0.5M lithium electrolyte solution was prepared by slowly adding LiTFSI (0.287 g) into a 1:1 solution of DME/DOL (2 mL). This 0.5M electrolyte solution was used for all electrochemical studies, while a more viscous 3M electrolyte solution (prepared following the same procedure as stated above) was used for performance characterization studies. CR2032 coin cell and glass fiber separators (Whatman, Grade GF/A) were used for all electrochemical characterizations unless otherwise indicated. Lithium foil with 7/16-inch diameter was used as the anode and the amount of electrolyte added was 60 μL. Half-cells were assembled adopting a conventional CR2032 coin cell architecture and subsequently using electrode 1, electrode 2, electrode 3, and electrode 4 as the cathode and lithium foil as the anode.

[2] = Galvanostatic cycling at 1C in 3M LiTFSI electrolyte
Excerpt: After 135 cycles, the discharge capacity retention of compound 2 is 65%. […] In situ infrared spectra of compound 2 (FIG. 14) show the C═O signal at wavenumbers between 1700 and 1600 cm^−1 disappearing during discharging and reappearing during charging, indicating good cycling reversibility of compound 2 as the organic cathode for lithium-ion storage.
as §1, §2

| SMILES | dQ/dV redox peak for lithiation [1] | specific (discharging) capacity ([1]; current density 100 mA g^−1) [mAh g^−1] | electrons reversibly stored per molecule during electrochemical cycling [1] | electron transfer corresponding to specific capacity ([1]; 0.5M electrolyte) [e^−] | electron transfer corresponding to specific capacity ([1]; 3M electrolyte) | discharge (specific) capacity ([1]; typical cycle, 3M electrolyte solution) [mAh g^−1] | columbic efficiency ([2]; 3M LiTFSI electrolyte, 1C) [%] | discharge capacity retention ([2]; after 135 cycles, 3M LiTFSI, 1C) [%] | capacity maintained ([2]; over 120 cycles, current density 1C) | charge/discharge profile observation ([1]; current density 100 mA g^−1, LiTFSI in DOL/DME) |
| --- | --- | --- | --- | --- | --- | --- | --- | --- | --- | --- |
| O=C(C(=O)c1ccc2ccccc2c1)c1ccc2ccccc2c1 [compound 4, 1,2-bis(2-naphthyl)ethan-1,2-dione, reference compound] | 2.17 V | 148.7 |  |  |  |  |  |  |  |  |
| O=C1C(=O)c2ccc3cc(ccc3c2)C(=O)C(=O)c2ccc3cc(ccc3c2)C(=O)C(=O)c2ccc3cc(ccc3c2)C(=O)C(=O)c2ccc3cc1ccc3c2 [compound 2] | 2.37 V and 2.08 V |  | up to eight electrons | ~6.3 | up to 7.6 e^− | 279 | ~99 | ~65 | higher than 150 mAh g^−1 |  |
| O=C1C(=O)c2ccc(cc2)-c2ccc(cc2)C(=O)C(=O)c2ccc(cc2)-c2ccc(cc2)C(=O)C(=O)c2ccc(cc2)-c2ccc(cc2)C(=O)C(=O)c2ccc(cc2)-c2ccc1cc2 [compound 3] |  |  | cannot reversibly store all eight electrons |  |  |  |  |  |  | irreversible discharging tail near the cut-off voltage |
| O=C1C(=O)c2ccc(cc2)C(=O)C(=O)c2ccc(cc2)C(=O)C(=O)c2ccc(cc2)C(=O)C(=O)c2ccc1cc2 [compound 1] |  | 171 | up to four electrons; also recorded: cannot reversibly store all eight electrons |  |  |  |  |  |  |  |

Values joined by “and” are separate entries in the source; they are usually repeats but may differ in a detail not shown here. Identical values can stand only once. “Also recorded” adds a separate entry of the source.
